No constants are given. Whether binding was seen depends on the method and setting. In cells and extracts the contact can be indirect. Some results given as binding are weak or reduced against the parent protein; the word gives no strength. Sequences can lack the tags named with a protein.
Assays:
[1] = target: Integrin β1 (human) (UniProt P05556); test: co-immunoprecipitation
[2] = target: Integrin β1 (human) (UniProt P05556); test: co-immunoprecipitation from Brij O10 lysate, Western blot
[3] = target: Integrin β1 (human) (UniProt P05556); test: co-immunoprecipitation after siRNA knockdown of E. Cadherin

Amino acid sequences for entries named in this document (tags omitted).
UniProt P05556: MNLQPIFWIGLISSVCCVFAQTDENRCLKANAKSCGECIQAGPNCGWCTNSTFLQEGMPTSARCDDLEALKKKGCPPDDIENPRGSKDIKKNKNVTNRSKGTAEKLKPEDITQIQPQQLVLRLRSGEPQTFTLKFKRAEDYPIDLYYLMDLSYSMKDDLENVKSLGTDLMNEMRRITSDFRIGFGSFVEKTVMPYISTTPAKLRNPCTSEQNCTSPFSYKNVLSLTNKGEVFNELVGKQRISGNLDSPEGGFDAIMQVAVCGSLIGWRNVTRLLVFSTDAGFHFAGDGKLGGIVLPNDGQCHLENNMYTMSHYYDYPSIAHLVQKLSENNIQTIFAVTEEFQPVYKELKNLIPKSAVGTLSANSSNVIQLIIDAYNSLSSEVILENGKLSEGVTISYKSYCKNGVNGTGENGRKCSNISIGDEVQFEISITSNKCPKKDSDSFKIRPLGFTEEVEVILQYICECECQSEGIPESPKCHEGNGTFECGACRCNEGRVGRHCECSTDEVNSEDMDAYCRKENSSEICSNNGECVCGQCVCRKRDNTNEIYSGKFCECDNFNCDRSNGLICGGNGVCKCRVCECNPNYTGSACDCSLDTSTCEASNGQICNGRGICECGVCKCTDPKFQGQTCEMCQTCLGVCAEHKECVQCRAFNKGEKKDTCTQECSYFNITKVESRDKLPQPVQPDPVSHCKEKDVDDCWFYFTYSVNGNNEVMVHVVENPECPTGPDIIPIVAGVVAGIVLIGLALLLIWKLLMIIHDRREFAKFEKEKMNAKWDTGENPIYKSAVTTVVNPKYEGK

Measured: binding

B1: Prostaglandin F2 Receptor Inhibitor (PTGFRN), expressed by cells (receptor, human, UniProt Q9P2B2 26-879, looked up)
chain: VPTATLVRVVGTELVIPCNVSDYDGPSEQNFDWSFSSLGSSFVELASTWEVGFPAQLYQERLQRGEILLRRTANDAVELHIKNVQPSDQGHYKCSTPSTDATVQGNYEDTVQVKVLADSLHVGPSARPPPSLSLREGEPFELRCTAASASPLHTHLALLWEVHRGPARRSVLALTHEGRFHPGLGYEQRYHSGDVRLDTVGSDAYRLSVSRALSADQGSYRCIVSEWIAEQGNWQEIQEKAVEVATVVIQPSVLRAAVPKNVSVAEGKELDLTCNITTDRADDVRPEVTWSFSRMPDSTLPGSRVLARLDRDSLVHSSPHVALSHVDARSYHLLVRDVSKENSGYYYCHVSLWAPGHNRSWHKVAEAVSSPAGVGVTWLEPDYQVYLNASKVPGFADDPTELACRVVDTKSGEANVRFTVSWYYRMNRRSDNVVTSELLAVMDGDWTLKYGERSKQRAQDGDFIFSKEHTDTFNFRIQRTTEEDRGNYYCVVSAWTKQRNNSWVKSKDVFSKPVNIFWALEDSVLVVKARQPKPFFAAGNTFEMTCKVSSKNIKSPRYSVLIMAEKPVGDLSSPNETKYIISLDQDSVVKLENWTDASRVDGVVLEKVQEDEFRYRMYQTQVSDAGLYRCMVTAWSPVRGSLWREAATSLSNPIEIDFQTSGPIFNASVHSDTPSVIRGDLIKLFCIITVEGAALDPDDMAFDVSWFAVHSFGLDKAPVLLSSLDRKGIVTTSRRDWKSDLSLERVSVLEFLLQVHGSEDQDFGNYYCSVTPWVKSPTGSWQKEAEIHSKPVFITVKMDVLNAFKYPLLIGVGLSTVIGLLSCLIGYCSSHWCCKKEVQETRRERRRLMSMEMD
binds: all assays above

From patent publication EP4695300A2 (dated 2026)
